Source: paper PMC10238197, “Deafness‐Associated ADGRV1 Mutation Impairs USH2A Stability through Improper Phosphorylation of WHRN and WDSUB1 Recruitment” (Advanced Science, 2023)
Changes are numbered by the printed parent chain. These are yes or no findings as the source states them, for the method shown. Binding seen in cells or lysates may run through a third protein. Some results given as binding are weak or reduced against the parent protein; the word gives no strength. Tags and fused reporters may be left off the sequences shown.

How the values were obtained:
Experiment in all cases: FRET or BRET; intermolecular FlAsH-BRET saturation in HEK293 cells: fixed amount of WHRN-Nluc, increasing ADGRV1-FlAsH or USH2A-FlAsH; 2.5 µM FlAsH-EDT2, 5 µM coelenterazine-h; net BRET Em530/Em485
[1] = target: T1, WHRN-Nluc (Z1-L) H202A (mouse) (UniProt Q80VW5)
T1 sequence: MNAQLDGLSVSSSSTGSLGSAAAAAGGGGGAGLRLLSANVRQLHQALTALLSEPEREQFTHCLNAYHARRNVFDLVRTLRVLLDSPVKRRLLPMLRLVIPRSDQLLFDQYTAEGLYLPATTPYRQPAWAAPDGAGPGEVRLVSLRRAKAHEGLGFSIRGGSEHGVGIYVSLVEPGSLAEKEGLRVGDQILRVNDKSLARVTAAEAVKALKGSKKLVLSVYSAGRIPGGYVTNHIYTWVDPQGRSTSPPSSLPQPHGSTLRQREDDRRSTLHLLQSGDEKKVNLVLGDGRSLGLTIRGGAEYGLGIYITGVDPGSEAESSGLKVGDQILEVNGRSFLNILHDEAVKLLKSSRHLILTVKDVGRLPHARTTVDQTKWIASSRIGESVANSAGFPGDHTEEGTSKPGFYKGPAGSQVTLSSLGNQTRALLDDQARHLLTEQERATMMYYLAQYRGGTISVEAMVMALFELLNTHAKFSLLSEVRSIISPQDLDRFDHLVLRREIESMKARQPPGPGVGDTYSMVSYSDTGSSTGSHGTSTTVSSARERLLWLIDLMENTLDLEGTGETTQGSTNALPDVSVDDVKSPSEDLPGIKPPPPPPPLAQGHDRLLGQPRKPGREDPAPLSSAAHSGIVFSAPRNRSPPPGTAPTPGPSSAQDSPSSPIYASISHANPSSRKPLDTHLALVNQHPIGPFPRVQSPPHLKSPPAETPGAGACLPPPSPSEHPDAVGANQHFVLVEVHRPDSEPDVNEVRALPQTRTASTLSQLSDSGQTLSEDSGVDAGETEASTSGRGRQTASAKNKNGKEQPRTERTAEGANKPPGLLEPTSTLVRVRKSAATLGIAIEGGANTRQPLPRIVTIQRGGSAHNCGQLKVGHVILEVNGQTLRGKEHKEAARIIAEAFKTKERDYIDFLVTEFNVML

[2] = target: T2, WHRN-Nluc (Z1-L) L209A (mouse) (UniProt Q80VW5)
T2 sequence: T1 sequence with A202H, L209A

[3] = target: T3, WHRN-Nluc (Z1-L) S170A (mouse) (UniProt Q80VW5)
T3 sequence: T1 sequence with S170A, A202H

Measured: binding

B1: USH2A-FlAsH (domain or fragment, UniProt Q2QI47 4819-5193)
chain: PPSGLSPPQVQTLGSRMASVHWTPPLLPNGVIHSYELQLQRACPPDSAPRCPPSHTERKYWGPGHRASLAGLQPNTAYGVQVVAYNEAGSTASGWTNFSTKKEMPQYQALFSVDSNASMVWVDWSGTFLLNGHLKEYVVTDGGRRVYSGLDTTLYIPRMVDKIFFFQVTCTTDIGSVKTPLVQYDAATGSGLVLTTPGEKKGAGTKSTEFYSELWFIMVMAVVGLILLAIFLSLILQRKIHKEPCIRERPPLVPLQKRMTPLSVYPPGETHVGLADTRLPRSGTPMSIRSSQSVSVLRIPSQSQLSHAYSQSSLHRSVSQLMDMADKKVVTEDSLWETIMGHSSGLYVDEEELMNAIKGFSSVTKEHTAFTDTHL
modifications: FlAsH-EDT2 label on the CCPGCC motif
binds: [1] | [2] | [3]
